Experimental data from patent publication US20130310317A1 (Bristol-Myers Squibb, published 2013).
Results are given in words; binding and its absence hold for the method and conditions named. Some results given as binding are weak or reduced against the parent protein; the word gives no strength.

By UniProt entry, the sequences of proteins in these tests, tags left out. Residues count along the entry.
UniProt P08069, residues 31-932: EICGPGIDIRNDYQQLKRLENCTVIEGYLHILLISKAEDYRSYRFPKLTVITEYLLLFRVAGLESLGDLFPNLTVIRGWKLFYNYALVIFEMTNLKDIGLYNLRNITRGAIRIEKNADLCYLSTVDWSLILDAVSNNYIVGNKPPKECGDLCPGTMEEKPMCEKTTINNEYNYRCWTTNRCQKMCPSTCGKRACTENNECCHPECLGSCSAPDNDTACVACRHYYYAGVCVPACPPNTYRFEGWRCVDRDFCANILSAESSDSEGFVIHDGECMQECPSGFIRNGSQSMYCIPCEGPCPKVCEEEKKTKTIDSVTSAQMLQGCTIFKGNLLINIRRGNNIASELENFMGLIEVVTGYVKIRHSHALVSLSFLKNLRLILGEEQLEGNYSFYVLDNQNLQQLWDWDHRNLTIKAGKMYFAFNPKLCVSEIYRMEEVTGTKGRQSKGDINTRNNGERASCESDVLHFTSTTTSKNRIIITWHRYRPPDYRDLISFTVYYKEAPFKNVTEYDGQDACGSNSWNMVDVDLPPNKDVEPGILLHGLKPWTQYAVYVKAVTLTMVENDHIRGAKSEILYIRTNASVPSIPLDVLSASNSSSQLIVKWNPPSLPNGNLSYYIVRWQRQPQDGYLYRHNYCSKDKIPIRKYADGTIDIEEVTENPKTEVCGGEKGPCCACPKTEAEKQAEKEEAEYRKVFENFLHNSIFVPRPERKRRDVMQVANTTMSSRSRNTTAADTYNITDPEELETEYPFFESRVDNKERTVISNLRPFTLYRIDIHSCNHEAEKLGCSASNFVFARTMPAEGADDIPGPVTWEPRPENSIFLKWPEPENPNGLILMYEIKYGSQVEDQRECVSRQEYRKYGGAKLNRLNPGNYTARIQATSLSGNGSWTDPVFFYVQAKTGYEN

Molecular target: T1, recombinant human IGF-IR (human, UniProt P08069 31-932)
T1 construct: Bought (R&D Systems); also called insulin-like growth factor-I receptor; IGF-1R
Test: direct binding ELISA on coated IGF-IR

binding | Binder
binds | 385F08 (designed binder, FG loop optimized derivative of 338A06) VSDVPRDLEVVAATPTSLLISWSARLKVARYYRITYGETGGNSPVQEFTVPKNVYTATISGLKPGVDYTITVYAVTSLRDYAPISINYRTHHHHHH
binds | 385A08 (designed binder, FG loop optimized derivative of 338A06; also called clone 385A08; unmodified 385A08) VSDVPRDLEVVAATPTSLLISWSARLKVARYYRITYGETGGNSPVQEFTVPKNVYTATISGLKPGVDYTITVYAVTRFRDYQPISINYRTHHHHHH

Molecular target: T1, recombinant human IGF-IR
Test: competitive ELISA: plate coated with 30 nM IGF-IR, clone bound first, then 10 nM biotinylated IGF-I as the blocked ligand, streptavidin-HRP/TMB, OD450
Procedure: MaxiSorp™ plates (Nunc International, Rochester, N.Y.) were coated with 30 nM IGF-IR in PBS at 4° C. overnight followed by blocking in OptEIA buffer (BD biosciences, San Diego, Calif.) for 3 hours at room temperature. Purified fibronectin-based scaffold proteins in OptEIA buffer were bound to each well for 1 hour at room temperature at concentrations ranging from 50 pM to 1 μM. […] The excess ligand was removed by washing with PBST and bound ligand was detected with streptavidin-HRP (Pierce, Rockford, Ill.) using TMB detection reagents (BD biosciences) according to the manufacturer's instructions

binding | Binder
binds | 354C05 (designed binder) VSDVPRDLEVVAATPTSLLISWSSNLVVKRYYRITYGETGGNSPVQEFTVPKDPSTATISGLKPGVDYTITVYAVTDYEMKPRNYGPISINYRTHHHHHH
binds | 354B10 (designed binder) VSDVPRDLEVVAATPTSLLISWSENLRVQRYYRITYGETGGNSPVQEFTVPSSVHTATISGLKPGVDYTITVYAVTKMRDYRPISINYRTHHHHHH
binds | 353H09 (designed binder, Optimized derivative of 218C04) VSDVPRDLEVVAATPTSLLISWSDKLKVQRYYRITYGETGGNSPVQEFTVPKHDRTATISGLKPGVDYTITVYAVTKMRDYRPISINYRTHHHHHH
binds | 339A01 (designed binder, Optimized derivative of 218C04) VSDVPRDLEVVAATPTSLLISWSTALKVQRYYRITYGETGGNSPVQEFTVPKHSHTATISGLKPGVDYTITVYAVTKMRDYRPISINYRTHHHHHH
binds | 354E02 (designed binder) VSDVPRDLEVVAATPTSLLISWGSHLRVSRYYRITYGETGGNSPVQEFTVPYDSHTATISGLKPGVDYTITVYAVTQGPNRGRNYQPISINYRTHHHHHH
binds | 218C04 (designed binder, also called clone 218C04; pre-optimized clone) VSDVPRDLEVVAATPTSLLISWSPYLRVARYYRITYGETGGNSPVQEFTVPSSARTATISGLKPGVDYTITVYAVTPSNIIGRHYGPISINYRTHHHHHH
binds | 354A09 (designed binder) VSDVPRDLEVVAATPTSLLISWSKRLQVSRYYRITYGETGGNSPVQEFTVPYNYKTATISGLKPGVDYTITVYAVTPSNIIGRHYGPISINYRTHHHHHH
binds | 338A05 (designed binder, Optimized derivative of 218C04) VSDVPRDLEVVAATPTSLLISWSDSLKVSRYYRITYGETGGNSPVQEFTVPKQYHTATISGLKPGVDYTITVYAVTPSNIIGRHYGPISINYRTHHHHHH
binds | 354C10 (designed binder) VSDVPRDLEVVAATPTSLLISWPTHYKVARYYRITYGETGGNSPVQEFTVPKHESTATISGLKPGVDYTITVYAVTLNVAYSREVRPISINYRTHHHHHH
binds | 353F10 (designed binder, Optimized derivative of 218C04) VSDVPRDLEVVAATPTSLLISWPTHYKVARYYRITYGETGGNSPVQEFTVPKHTYTATISGLKPGVDYTITVYAVTTTKGLRHYGPISINYRTHHHHHH
binds | 354D10 (designed binder) VSDVPRDLEVVAATPTSLLISWPDHVKVQRYYRITYGETGGNSPVQEFTVPQHSRTATISGLKPGVDYTITVYAVTYTGYGTERNYQPISINYRTHHHHHH

Molecular target: T1, recombinant human IGF-IR
Test: direct binding ELISA: plate coated with 10 nM IGF-IR, His-tagged clone detected with His-HRP probe, TMB, OD450
Procedure: MaxiSorp™ plates (Nunc International, Rochester, N.Y.) were coated with 10 nM IGF-IR in PBS at 4° C. overnight followed by blocking in PBS-casein buffer (Pierce) for 3 hours at room temperature. Purified fibronectin-based scaffold proteins in casein buffer were bound to each well for 1 hour at room temperature at a concentration of 5 nM. The plate was washed with PBST and 100 μl of a 1:4000 dilution of His-HRP probe (Pierce) was added to each well with incubation for 15 min at room temperature. The wells were washed 5 times with PBST and the bound HRP was detected with TMB detection reagents (BD biosciences) according to the manufacturer's instructions.

binding | Binder
binds | 385F08 (designed binder, FG loop optimized derivative of 338A06) VSDVPRDLEVVAATPTSLLISWSARLKVARYYRITYGETGGNSPVQEFTVPKNVYTATISGLKPGVDYTITVYAVTSLRDYAPISINYRTHHHHHH
binds | 385A08 (designed binder, FG loop optimized derivative of 338A06; also called clone 385A08; unmodified 385A08) VSDVPRDLEVVAATPTSLLISWSARLKVARYYRITYGETGGNSPVQEFTVPKNVYTATISGLKPGVDYTITVYAVTRFRDYQPISINYRTHHHHHH
